Measured data: PubChem BioAssay AID1259299 (Sanger Institute, 2017)

Assay: 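Essential genes and drug-synergistic partners among kinases and colorectal mutation genes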 (primary screen)
System: human CAR1 colorectal cancer cells
Knock-down reagent: siRNA pool against human genes
Treatment: anchor drug BYL719 1 µM, cetuximab 5 µg/ml or trametinib 10 nM, or DMSO vehicle alone; exposure length not given
Read-out: 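Mean replicate viability versus non-targeting controls, turned into robust z-scores, plus drug synergy scores for BYL719, cetuximab and trametinib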
Direction: viability robust z-score, knock-down alone: higher = more viable cells
Hit rule: 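a gene is called essential if its knock-down-alone viability z-score drops under -3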
Meaning of the calls: active = essential (knock-down alone); inactive = no change
Here is one part, drawn at random, of 794 reagents tested. 9 of them (1.1%) were called active. 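Calls rest on knock-down alone; synergy scores play no part in calls, and no gene passed the synergy cut.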 Further read-outs or replicates are left out here. Reagent sequences are not shown. Not given: the amount of reagent, the time to read-out.

Against NEK8, the values are viability robust z-score, knock-down alone -1.61; inactive.
ERBB2 scored viability robust z-score, knock-down alone 0.789; inactive.
For PAK4, the entry reads viability robust z-score, knock-down alone 0.789; inactive.
SRPK2 showed viability robust z-score, knock-down alone 0.789; inactive.
For CSNK1A1L, the values are viability robust z-score, knock-down alone 0.789; inactive.
Against KRAS, the entry reads viability robust z-score, knock-down alone -0.666; inactive.
Knock-down of PBK gave: viability robust z-score, knock-down alone 0.41; inactive.
For EPHB3 the deposit lists viability robust z-score, knock-down alone 0.77; inactive.
CDK9 gave viability robust z-score, knock-down alone -0.138; inactive.
EXOSC10 gave viability robust z-score, knock-down alone -1.08; inactive.
For DGKG, the entry reads viability robust z-score, knock-down alone 0.15; inactive.
With knock-down of HASPIN the results were viability robust z-score, knock-down alone 0.789; inactive.
With knock-down of DMPK, the screen gave viability robust z-score, knock-down alone -1.66; inactive.
MLKL showed viability robust z-score, knock-down alone -0.62; inactive.
SOS2 gave viability robust z-score, knock-down alone 0.789; inactive.
Silencing of ADK resulted in: viability robust z-score, knock-down alone -0.592; inactive.
Depletion of MAPKAPK3 resulted in: viability robust z-score, knock-down alone -2.87; inactive.
SOX9 scored viability robust z-score, knock-down alone -0.271; inactive.
TSSK6 gave viability robust z-score, knock-down alone 0.428; inactive.
Against MYLK, the values are viability robust z-score, knock-down alone 0.789; inactive.
With knock-down of NUP98, the screen gave viability robust z-score, knock-down alone -2.64; inactive.
Silencing of CAMK2N1 gave: viability robust z-score, knock-down alone -4.13; active.
Against GRK4 the deposit lists viability robust z-score, knock-down alone -0.0168; inactive.
After knock-down of PRKAB2, the screen gave viability robust z-score, knock-down alone -0.267; inactive.
Silencing of TESK2 came out at: viability robust z-score, knock-down alone 0.789; inactive.
Depletion of ZAP70 came out at: viability robust z-score, knock-down alone -0.406; inactive.
After knock-down of MAP3K6 the results were viability robust z-score, knock-down alone -0.112; inactive.
With knock-down of SCYL1, the record shows viability robust z-score, knock-down alone 0.789; inactive.

Entries above whose gene name begins with N or n:
NEK8 — viability robust z-score, knock-down alone: -1.61; Call: inactive
NUP98 — viability robust z-score, knock-down alone: -2.64; Call: inactive
